Drawing on publication PMC7819943, “Rice protein-binding microarrays: a tool to detect cis-acting elements near promoter regions in rice”, this text covers binding signal for 42 sequences.

The list shows a part of the results.

In this test the target is T1, OsSMF1 (Oryza sativa, UniProt Q6ZLB0 1-436).
T1 sequence: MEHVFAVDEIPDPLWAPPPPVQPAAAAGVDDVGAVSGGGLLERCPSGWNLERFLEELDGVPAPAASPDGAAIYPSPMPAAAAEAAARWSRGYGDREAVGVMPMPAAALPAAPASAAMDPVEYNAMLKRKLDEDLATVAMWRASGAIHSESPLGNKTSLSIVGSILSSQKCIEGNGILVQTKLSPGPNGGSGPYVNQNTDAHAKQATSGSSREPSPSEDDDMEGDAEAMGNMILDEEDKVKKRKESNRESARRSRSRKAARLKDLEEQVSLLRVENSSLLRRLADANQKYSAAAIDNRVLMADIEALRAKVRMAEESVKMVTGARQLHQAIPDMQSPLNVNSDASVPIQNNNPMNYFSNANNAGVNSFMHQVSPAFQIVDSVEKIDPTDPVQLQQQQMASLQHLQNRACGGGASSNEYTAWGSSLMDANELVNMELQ
As to the kind of experiment: protein-binding microarray (RPBM); PBS, 2% BSA, 51.3 ng/ul salmon testes DNA, 50 uM zinc acetate, 200 nM TF, 25 C, 1 h; high values mean tight binding. The following applies: protein: recombinant; tags: N-terminal polyhistidine and DsRed monomer fusion (pET32a); chain copies: 2; label: CyDye5-dUTP incorporated in the synthesized complementary strand; 3' TTTTT single-stranded linker to array surface; dsDNA, one strand shown. A digest of the protocol: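 Using Ni–NTA, transcription factors fused N-terminally to polyhistidine and DsRed were purified after expression in E. coli BL21-CodonPlus. These were incubated at 200 nM with a blocked, double-stranded custom Agilent array for 1 h at 25 °C in a buffer containing 50 µM zinc acetate, and the array was washed. The binding signal is per-feature fluorescence intensity (arbitrary units) on an Axon 4000B scanner.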
Consider “AGAGAGGGTTTGGAGGCCTCAGAAAGCAGAGGTTCATCTCCGGAGTCACCTAGTGCAG”, for which the binding signal is 3300 fluorescence intensity (a.u.).

On to “TGCAAATCTCAATGTGAGTCACATGTGGTGTCATCAGTCACGGAGTCACCTAGTGCAG”, for which the binding signal is 5890 fluorescence intensity (a.u.). Regarding “CTAGGTATATAGCATCCATACATATAATTAGTTAGGTATGCGGAGTCACCTAGTGCAG”, the binding signal was 3300 fluorescence intensity (a.u.).

On to “TTGGTGAAATGGTGACTTGTGGACTGATGGAGTGGGAGCTCGGAGTCACCTAGTGCAG”, for which the binding signal was 4500 fluorescence intensity (a.u.). Turning to “ATATCTCTCCCACCCACCCACTCTTCCTCCACTCCGGCGACGGAGTCACCTAGTGCAG”, the binding signal was 3340 fluorescence intensity (a.u.). The same measure for “ATGCCTGCTACGTACGTGTGCGTAGAAGATGTTGCTGTTGCGGAGTCACCTAGTGCAG”: 5090 fluorescence intensity (a.u.); for “ACTAATTGATCATCGTGATCGTCATCATCTTCATTTGTCTCGGAGTCACCTAGTGCAG”: 3440 fluorescence intensity (a.u.); for “TTTAGCATGGGACATCTGACAGGTCAGGTCCATCTGTCATCGGAGTCACCTAGTGCAG”: 4010 fluorescence intensity (a.u.). The same measure for “ATTTTGGGCCAAATTCCCTTCAATTAACCCAATCAGCACACGGAGTCACCTAGTGCAG”: 3250 fluorescence intensity (a.u.); for “GAAAATTACGCGATATGGGTGATGGCGCCCTGTTCCTTATCGGAGTCACCTAGTGCAG”: 3730 fluorescence intensity (a.u.). In the case of “GTCTCGGTGGATAACGGACGGTGACGTGATCTACGGTGAGCGGAGTCACCTAGTGCAG” it was 3240 fluorescence intensity (a.u.); in that of “CGGCTAGAAGCGCCGATAGCTGCCGTCCTCCGTCACTTCCCGGAGTCACCTAGTGCAG”, 4550 fluorescence intensity (a.u.). Regarding “CCTTGCGCTCAATGCCAGGCGGCCCAGTTAAACTACACGCCGGAGTCACCTAGTGCAG”, the binding signal is 3150 fluorescence intensity (a.u.). Consider “TACCTGATGAGTGATAAGACTCAACTGACGTGCTGTGCTGCGGAGTCACCTAGTGCAG”, for which the binding signal was 5360 fluorescence intensity (a.u.). For the sequence “AAGGATTGCTATGATTCATATTTGTCACCGTGGGTACCAGCGGAGTCACCTAGTGCAG”, the binding signal is 4150 fluorescence intensity (a.u.). The same measure for “CCTGAACACCCTACTCCGCATTTAGACAATGCCGTTAAATCGGAGTCACCTAGTGCAG”: 3490 fluorescence intensity (a.u.); for “GGGATGATTTGTCTGGTGGAATCTAAGGCCTCCATAAATGCGGAGTCACCTAGTGCAG”: 3170 fluorescence intensity (a.u.). With “TAAACCTGCGGGTTCATGTGTCGTGGTCTAACTTACTGTACGGAGTCACCTAGTGCAG”, the binding signal was 3140 fluorescence intensity (a.u.). In the case of “AGGGAGGAGGGTGGGTGGTGCCAACACGTCAGGCTGAATTCGGAGTCACCTAGTGCAG” it was 10100 fluorescence intensity (a.u.); in that of “TGTGTATCCGGCCGTGTCACGTGAAGCCCGGTACGGCCCCCGGAGTCACCTAGTGCAG”, 6950 fluorescence intensity (a.u.); in that of “ACCTACGTCTGCACAATTGTTGCACACGCAGATCCAGCACCGGAGTCACCTAGTGCAG”, 20100 fluorescence intensity (a.u.).

As to “GGCAGATGTGGACGGAGGGAGGGAGGGAGGGAGAGGGGCACGGAGTCACCTAGTGCAG”, the binding signal is 3740 fluorescence intensity (a.u.). In the case of “TCTCCCCAGATTTCCCCTTCCATTCCGCCTCCCGATCGCTCGGAGTCACCTAGTGCAG” it was 43300 fluorescence intensity (a.u.); in that of “GGTGGTGGTGGTGGTGGTGGTGGCCGCCGGTGGTGATTGGCGGAGTCACCTAGTGCAG”, 4600 fluorescence intensity (a.u.). In the case of “TACCTGTGACGGGCAATCGAAATGGTCACTGATGACCGTCCGGAGTCACCTAGTGCAG”, the binding signal was 3550 fluorescence intensity (a.u.). In the case of “GTTAGGCAGGACCCTTGACGCGGACTATGACGACGTGGCCCGGAGTCACCTAGTGCAG” it was 9600 fluorescence intensity (a.u.).

With “AGTTTGGCCCCATCAACGTTGATGACGTCGGCTATGGCCTCGGAGTCACCTAGTGCAG”, the binding signal is 7280 fluorescence intensity (a.u.). In the case of “CTGACCTGTGCCTCCACGTGACGTTAGTGGGGCTTTTGTCCGGAGTCACCTAGTGCAG” it was 5970 fluorescence intensity (a.u.); in that of “CAGGCAGGCTGCTTAATATCAAGGATAGTCATTTGTCAGCCGGAGTCACCTAGTGCAG”, 19800 fluorescence intensity (a.u.); in that of “TACCCCATCACCAACCTGGATTTGGTGGCATGGGTGGGGTCGGAGTCACCTAGTGCAG”, 4190 fluorescence intensity (a.u.). The same measure for “ATCAATTAATCATGAGCTAATGACTCACTTCGTTTTACGTCGGAGTCACCTAGTGCAG”: 6260 fluorescence intensity (a.u.).

As for “CTTCTCCTAGCCTCCTTGTGTTAGTGCACATGTCATTCGGCGGAGTCACCTAGTGCAG”, the binding signal was 4200 fluorescence intensity (a.u.).

“TTTACTGATCTTTACCTCAGTCAGCGTTGTGTGTTAGGTTCGGAGTCACCTAGTGCAG”: the binding signal was 3540 fluorescence intensity (a.u.). In the case of “CTGGGGAGGGCGACGGCGCAGTGCGGGGTGGACGGGAGCGCGGAGTCACCTAGTGCAG”, the binding signal was 3480 fluorescence intensity (a.u.). The same measure for “CAGAAATATATATATGGTGGCCACATTGCATAAAAGTATACGGAGTCACCTAGTGCAG”: 5660 fluorescence intensity (a.u.); for “CAACAAATCCGACATGTCATTCTCACCCCTCTTCTTCCTCCGGAGTCACCTAGTGCAG”: 6150 fluorescence intensity (a.u.). In the case of “TCATTACTCAACGTGCTGCAGAGCGTGGTGGCAGCCCTGGCGGAGTCACCTAGTGCAG” it was 3550 fluorescence intensity (a.u.); in that of “AGACTATACTATTGAACTTGCTCTAATAGTCTGCTATTGTCGGAGTCACCTAGTGCAG”, 7810 fluorescence intensity (a.u.); in that of “TCTAAAATTTATCGAATTTTGGAACGATGTGCGTGTGCAACGGAGTCACCTAGTGCAG”, 23200 fluorescence intensity (a.u.). The same measure for “ATAAAGTATACTACGAGCGATGACGCAGTACAGAATAGGACGGAGTCACCTAGTGCAG”: 4260 fluorescence intensity (a.u.). As for “CCAACAGCGACCGGTGACGTGTCCCGTGTGCCCAACTTATCGGAGTCACCTAGTGCAG”, the binding signal is 22600 fluorescence intensity (a.u.).

Turning to “TCCATTTGATAACTCCATACGGCGAATGACGAATTAACCCCGGAGTCACCTAGTGCAG”, the binding signal was 3420 fluorescence intensity (a.u.).
